In patent publication US11155612 one finds binding data, which are given here for two molecules.

Protein sequences, listed by entry. Tags and fused reporters are not part of them. Lines headed by an entry give the natural chain unless they say otherwise; changes in a name come on top. Chains listed by the source or under a name are the forms on record and can include a tag or linker.
VEGF165 (P15692, form named): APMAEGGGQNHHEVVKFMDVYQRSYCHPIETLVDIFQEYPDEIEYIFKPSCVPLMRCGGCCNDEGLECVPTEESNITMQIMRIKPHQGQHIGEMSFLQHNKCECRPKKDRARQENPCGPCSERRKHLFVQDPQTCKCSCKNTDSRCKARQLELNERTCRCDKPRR

These are yes or no findings as the source states them, for the method shown. Some binding calls cover weakened binding; strength is not graded here.

This assay concerns the target VEGF165 (UniProt P15692). Nature of the assay: ELISA, plates coated with VEGF165, dilutions of vNAR. (In an ELISA, binding on a coated surface is turned into a signal by an enzyme label.)

B1: vNAR P98Y (clone M1), anti-VEGF vNAR of SEQ ID NO:1 (protein)
chain: ASLDQTPRTATRETGESLSINCVLTDTSHILFGTKWLWNNPGSTDWESITIGGRYAESVNNQAKSFSLQIKDLTVEDSGTYYCKAQTIGRRKNLLPRYLVNGIAAMGYSSSDYDGAGTVLTVN
For the molecule B1, the binding entry was “binds”.

B2: vNAR V13 (parental sequence) (protein)
chain: ASLDQTPRTATRETGESLSINCVLTDTSHILFGTKWLWNNPGSTDWESITIGGRYAESVNNQAKSFSLQIKDLTVEDSGTYYCKAQTIGRRKNLLPRPLVNGIAAMGYSSSDYDGAGTVLTVN
As to B2, the binding entry was “binds”.
